This note sets out measurements from patent US20210227843A1, “A TEMPERING COMPOSITION FOR TEMPERING GRAIN AND CONTROLLING PATHOGENS IN AND/OR ON SAID GRAIN, AN OXIDIZING COMPOSITION FOR PREPARING SAID TEMPERING COMPOSITION, A USE OF SAID TEMPERING COMPOSITION AND A METHOD OF USE OF SAID TEMPERING COMPOSITION” (AGRI-NEO INC., priority 2017, published 2021).

The data set can be described thus: Flour functionality, sensory and physical characteristics after tempering wheat in an organic flour mill (Example 1). The settings on record: 2 L per ton of wheat (citric acid 2 Kg); 16 h hold.

For `O=C(O)CC(O)(CC(=O)O)C(=O)O` [Citric acid], the “% Hydration” value was found to be 60%, the Bread size-mold is reported as 158 mm, the “EXTENSO 1 3 h 30 after fermen. Energy” value was 75 cm-2 and the “EXTENSO 1 3 h 30 after fermen. Maximum” value came out at 298 mm. In addition, the “EXTENSO 1 3 h 30 after fermen. Ratio Max” value is listed as 1.5 EU/mm, the “EXTENSO 1 3 h 30 after fermen. Resistance” value came to 207 EU, the “EXTENSO 1 Energy” value was found to be 130 cm-2 and the “EXTENSO 1 Extensibility” value worked out at 149 mm. For the same molecule, the “EXTENSO 1 Resistance (EU = extensograph petrin outle tunit)” value came out at 459 EU, the “EXTENSO 2 Division after fermen Energy” value amounted to 136 cm-2, the “EXTENSO 2 Division after fermen Extensibility” value is 136 mm and the “EXTENSO 2 Division after fermen Maximum” value was 809 mm. Also, the “EXTENSO 2 Division after fermen Ratio” value was determined as 4.5 EU/mm, the “EXTENSO 2 Division after fermen Ratio Max” value amounted to 6 EU/mm, the “EXTENSO 2 Division after fermen Resistance” value is given as 613 EU and the “FOSS % Proteins” value is on record as 11.32%. Also, the FOSS % gluten was 31.97%, the FOSS % humidity is 13.5%, the “GPT % Gluten—Wet” value is listed as 34.8% and the “GPT % Protein content” value is on record as 11.3%. The IDC is 367 s, the “MIXOLAB Aff 12 min” value is on record as 0.022 Nm, the PMT stood at 185 s and the “VMI Temperature” value was found to be 23.6 °C.
